Data reported in patent US20140066373A1, “TREATING DIABETES WITH OXYTOCIN OR OXYTOCIN ANALOGS” (Albert Einstein College of Medicine of Yeshiva University, priority 2012, published 2014).

Amino acid sequences for entries named in this document (tags omitted). A change or cut given only in a name is not applied to a line headed by its entry.
UniProt P01178: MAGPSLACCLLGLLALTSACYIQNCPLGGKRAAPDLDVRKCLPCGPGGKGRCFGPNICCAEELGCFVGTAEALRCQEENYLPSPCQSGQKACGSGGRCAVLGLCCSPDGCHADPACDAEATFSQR

Experiments:
[1] = system: HFD-induced prediabetic mouse model; test: Acute intra-third ventricle therapy in HFD-induced prediabetic (dietary obese) mice: GTT, fasting blood insulin, body weight; assay type: in vivo, C57BL/6 mice; details: 2-month HFD mice, overnight period under fasting, 2 μg per injection twice
Description: (§1) Animals. C57BL/6 mice were purchased from Jackson Laboratory. All mice were housed in standard conditions. High-fat diet was purchased from Research Diets, Inc. All animal procedures were approved by the Institutional Animal Care and Use Committee. Mice were subjected to body weight measurement on a daily basis surrounding surgical procedures or drug treatments to monitor physical recovery or the effect of drug treatment on body weight.
(§2) Third ventricle cannulation and drug treatment. Third ventricle cannulation procedure was as previously described (39). An ultra-precise small animal stereotactic apparatus (Kopf Instruments) was used to perform implantation of a guide cannula into the third ventricle of anesthetized mice, at the coordinates of 1.8 mm posterior to the bregma and 5.0 mm below the skull surface. Mice were allowed 1-2 weeks for postsurgical recovery. For drug treatment. Oxytocin (Bachem Americas, Inc.), [Ser4, Ile8]-oxytocin (Bachem Americas, Inc.), [Asu1,6]-oxytocin (American Peptide Company, Inc.) or control vehicle were injected via pre-implanted guide cannula into the third ventricle of individually housed mice.
(§3) Blood tests. For glucose tolerance test (GTT), overnight-fasted mice received one-time intraperitoneal injection of glucose (2 g/kg body weight), and blood glucose levels were measured using OneTouch Ultra2 (LifeScan, Inc.). Fasting blood insulin levels were measured with Ultra Sensitive Mouse Insulin ELISA kits (Crystal Chem). Glucose-stimulated insulin secretion (GSIS) test was performed as previously described (19). Overnight-fasted mice received one-time intraperitoneal injection of glucose (3 g/kg body weight), and blood insulin levels were measured at 3 min. and 20 min. after the injection.
Acute oxytocin therapy reverses insulin resistance in dietary obese mice independently of body weight. […]

[2] = system: STZ-induced diabetic mice; test: 7-day intra-third ventricle pretreatment in STZ-induced diabetic mice: GTT, fasting blood insulin, GSIS, body weight; assay type: in vivo, C57BL/6 mice
Description: as §1, §2
as §3, with “injection. […]” for “injection.”
Finally [Asu1,6]-oxytocin was tested for potential […] protection and anti-diabetic effects using an STZ-induced diabetic mouse model. […] Following [Asu1,6]-oxytocin and STZ treatments, mice were evaluated for glucose tolerance test, fasting blood insulin levels, and glucose-stimulated insulin secretion.

Molecule | body weight changes [1] | body weight changes [2]
CC[C@H](C)[C@@H]1NC(=O)[C@H](Cc2ccc(O)cc2)NC(=O)[C@@H](N)CSSC[C@@H](C(=O)N2CCC[C@H]2C(=O)N[C@@H](CC(C)C)C(=O)NCC(N)=O)NC(=O)[C@H](CC(N)=O)NC(=O)[C@H](CCC(N)=O)NC1=O [oxytocin, Cys-Tyr-Ile-Gln-Asn-Cys-Pro-Leu-Gly-NH2] | did not induce body weight changes | not associated with significant changes in body weight
[Asu1,6]-oxytocin | not accompanied by statistically significant body weight changes | not associated with significant changes in body weight
[Ser4, Ile8]-oxytocin (CYISNCPIG; Oxytocin; UniProt P01178 20-28, looked up, variant Q4S L8I) [oxytocin analog: glutamine at position 4 substituted with serine, leucine at position 8 with isoleucine; Bachem Americas, Inc] | did not incur body weight changes | did not involve significant body weight changes
